According to the supplement of paper PMC6411743:
± gives the standard deviation of the averaged measurements. This is one part of the list.

Amino acid sequences for entries named in this document (tags omitted). A change or cut given only in a name is not applied to a line headed by its entry.
UniProt P62312: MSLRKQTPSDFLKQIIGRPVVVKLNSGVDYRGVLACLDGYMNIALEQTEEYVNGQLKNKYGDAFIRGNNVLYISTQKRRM
UniProt P62310: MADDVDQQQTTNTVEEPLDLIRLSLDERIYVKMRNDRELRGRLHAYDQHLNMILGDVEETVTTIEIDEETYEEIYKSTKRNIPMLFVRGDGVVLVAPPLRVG
UniProt P51531, whole entry: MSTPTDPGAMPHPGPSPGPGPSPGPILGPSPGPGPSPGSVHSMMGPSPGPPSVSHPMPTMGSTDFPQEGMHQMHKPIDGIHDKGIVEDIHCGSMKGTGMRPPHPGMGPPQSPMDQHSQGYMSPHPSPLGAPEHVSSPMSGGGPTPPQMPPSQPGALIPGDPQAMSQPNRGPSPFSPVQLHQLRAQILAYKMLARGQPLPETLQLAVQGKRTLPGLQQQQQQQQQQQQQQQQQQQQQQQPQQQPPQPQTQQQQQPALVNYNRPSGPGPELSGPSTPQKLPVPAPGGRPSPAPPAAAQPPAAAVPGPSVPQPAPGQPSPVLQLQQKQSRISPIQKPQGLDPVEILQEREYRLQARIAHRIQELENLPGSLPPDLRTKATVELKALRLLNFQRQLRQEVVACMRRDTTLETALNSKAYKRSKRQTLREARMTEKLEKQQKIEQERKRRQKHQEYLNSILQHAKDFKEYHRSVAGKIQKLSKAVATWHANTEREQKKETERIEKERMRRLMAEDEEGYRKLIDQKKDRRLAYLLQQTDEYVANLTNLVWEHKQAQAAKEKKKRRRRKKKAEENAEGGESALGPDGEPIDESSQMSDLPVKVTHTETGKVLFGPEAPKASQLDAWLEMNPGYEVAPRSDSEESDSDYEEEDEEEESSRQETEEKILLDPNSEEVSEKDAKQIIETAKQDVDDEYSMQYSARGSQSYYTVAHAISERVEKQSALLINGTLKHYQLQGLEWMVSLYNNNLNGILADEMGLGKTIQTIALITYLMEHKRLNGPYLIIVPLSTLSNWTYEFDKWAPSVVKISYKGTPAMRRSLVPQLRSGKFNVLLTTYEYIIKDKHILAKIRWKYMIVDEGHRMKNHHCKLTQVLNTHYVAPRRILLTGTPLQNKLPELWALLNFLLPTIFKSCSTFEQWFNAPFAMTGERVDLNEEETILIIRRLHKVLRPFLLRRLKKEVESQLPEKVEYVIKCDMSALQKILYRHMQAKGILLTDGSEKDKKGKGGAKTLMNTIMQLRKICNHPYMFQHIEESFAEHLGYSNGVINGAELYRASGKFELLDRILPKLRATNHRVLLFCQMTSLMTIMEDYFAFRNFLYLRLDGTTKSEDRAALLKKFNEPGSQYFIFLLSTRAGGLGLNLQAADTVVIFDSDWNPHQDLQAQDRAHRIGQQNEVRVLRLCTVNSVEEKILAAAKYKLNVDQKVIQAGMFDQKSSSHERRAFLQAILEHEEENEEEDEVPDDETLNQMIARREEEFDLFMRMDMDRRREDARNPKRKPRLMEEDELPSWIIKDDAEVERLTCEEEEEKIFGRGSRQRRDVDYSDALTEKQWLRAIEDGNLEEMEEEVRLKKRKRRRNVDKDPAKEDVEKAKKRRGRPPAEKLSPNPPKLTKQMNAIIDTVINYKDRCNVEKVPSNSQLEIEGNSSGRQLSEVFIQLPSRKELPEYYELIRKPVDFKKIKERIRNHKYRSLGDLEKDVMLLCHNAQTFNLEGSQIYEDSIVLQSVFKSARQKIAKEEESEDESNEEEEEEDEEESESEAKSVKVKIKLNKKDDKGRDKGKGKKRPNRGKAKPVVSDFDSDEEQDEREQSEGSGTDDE
UniProt P61019: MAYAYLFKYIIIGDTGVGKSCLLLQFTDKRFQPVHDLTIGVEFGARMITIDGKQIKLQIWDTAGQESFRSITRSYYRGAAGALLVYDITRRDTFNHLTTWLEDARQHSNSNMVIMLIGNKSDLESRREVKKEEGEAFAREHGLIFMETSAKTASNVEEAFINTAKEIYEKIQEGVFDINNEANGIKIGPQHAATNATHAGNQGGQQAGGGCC
UniProt P52564: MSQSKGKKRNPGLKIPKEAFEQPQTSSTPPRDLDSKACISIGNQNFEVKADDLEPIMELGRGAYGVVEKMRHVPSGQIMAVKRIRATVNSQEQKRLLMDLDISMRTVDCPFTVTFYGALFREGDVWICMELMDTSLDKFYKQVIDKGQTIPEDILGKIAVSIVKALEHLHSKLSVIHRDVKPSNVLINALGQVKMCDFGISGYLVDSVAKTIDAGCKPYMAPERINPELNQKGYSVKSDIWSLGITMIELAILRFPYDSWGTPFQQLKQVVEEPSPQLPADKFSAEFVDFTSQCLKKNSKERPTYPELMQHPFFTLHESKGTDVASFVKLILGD
UniProt P56381: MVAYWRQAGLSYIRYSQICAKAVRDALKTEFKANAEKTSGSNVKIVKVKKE
UniProt P61024, whole entry: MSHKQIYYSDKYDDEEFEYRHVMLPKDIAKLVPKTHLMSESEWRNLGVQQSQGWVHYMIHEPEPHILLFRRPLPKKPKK
UniProt P54687: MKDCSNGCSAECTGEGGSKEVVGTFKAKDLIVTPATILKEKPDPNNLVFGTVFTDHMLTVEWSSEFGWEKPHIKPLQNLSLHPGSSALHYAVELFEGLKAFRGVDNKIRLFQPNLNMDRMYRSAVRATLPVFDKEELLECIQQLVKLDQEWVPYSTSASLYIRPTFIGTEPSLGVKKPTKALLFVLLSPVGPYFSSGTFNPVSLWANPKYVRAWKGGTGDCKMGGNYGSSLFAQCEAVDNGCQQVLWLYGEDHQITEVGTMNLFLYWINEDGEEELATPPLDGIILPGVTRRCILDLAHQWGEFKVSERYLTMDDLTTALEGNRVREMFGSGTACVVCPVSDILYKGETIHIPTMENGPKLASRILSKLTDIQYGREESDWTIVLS
UniProt P51970, whole entry: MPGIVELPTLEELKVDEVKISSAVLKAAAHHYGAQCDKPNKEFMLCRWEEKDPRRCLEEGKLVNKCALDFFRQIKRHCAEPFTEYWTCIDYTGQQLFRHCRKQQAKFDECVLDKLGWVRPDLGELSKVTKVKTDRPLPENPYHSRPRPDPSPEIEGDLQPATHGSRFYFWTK
UniProt P50454: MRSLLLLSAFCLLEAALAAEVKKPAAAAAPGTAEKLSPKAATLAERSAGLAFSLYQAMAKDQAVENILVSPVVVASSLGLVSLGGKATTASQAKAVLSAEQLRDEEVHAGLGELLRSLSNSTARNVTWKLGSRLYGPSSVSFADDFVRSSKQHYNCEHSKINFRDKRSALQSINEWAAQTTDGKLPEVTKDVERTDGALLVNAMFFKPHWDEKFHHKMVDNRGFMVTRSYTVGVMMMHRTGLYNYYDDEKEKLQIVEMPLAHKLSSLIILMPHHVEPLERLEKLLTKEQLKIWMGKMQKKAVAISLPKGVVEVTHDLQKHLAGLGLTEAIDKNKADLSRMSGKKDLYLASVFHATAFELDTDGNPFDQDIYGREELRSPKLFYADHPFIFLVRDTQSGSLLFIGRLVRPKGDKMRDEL
UniProt P55347: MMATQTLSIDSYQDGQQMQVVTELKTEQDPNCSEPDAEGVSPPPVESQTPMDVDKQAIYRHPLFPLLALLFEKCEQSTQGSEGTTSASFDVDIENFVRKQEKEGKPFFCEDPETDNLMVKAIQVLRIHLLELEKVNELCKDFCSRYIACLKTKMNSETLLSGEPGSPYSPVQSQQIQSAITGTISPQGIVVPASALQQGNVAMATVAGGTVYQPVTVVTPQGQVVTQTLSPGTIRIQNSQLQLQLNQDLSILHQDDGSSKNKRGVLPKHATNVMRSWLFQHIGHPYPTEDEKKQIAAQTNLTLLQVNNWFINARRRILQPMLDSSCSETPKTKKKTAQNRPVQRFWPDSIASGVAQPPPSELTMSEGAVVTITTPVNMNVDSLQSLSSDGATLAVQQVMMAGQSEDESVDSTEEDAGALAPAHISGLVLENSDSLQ
UniProt P56182: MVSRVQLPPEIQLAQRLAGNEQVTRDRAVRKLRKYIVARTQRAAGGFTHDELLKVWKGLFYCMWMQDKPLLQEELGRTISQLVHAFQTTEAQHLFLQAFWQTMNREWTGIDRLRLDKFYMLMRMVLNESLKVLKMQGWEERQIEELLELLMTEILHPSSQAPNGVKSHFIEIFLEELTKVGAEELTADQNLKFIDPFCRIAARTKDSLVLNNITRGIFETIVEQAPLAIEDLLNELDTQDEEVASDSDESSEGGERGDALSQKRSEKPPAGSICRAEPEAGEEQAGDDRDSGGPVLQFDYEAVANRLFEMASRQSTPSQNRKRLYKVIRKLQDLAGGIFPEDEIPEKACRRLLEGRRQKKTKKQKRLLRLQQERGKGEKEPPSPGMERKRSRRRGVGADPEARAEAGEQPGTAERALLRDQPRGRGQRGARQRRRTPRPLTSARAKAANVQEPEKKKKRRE
UniProt P62633: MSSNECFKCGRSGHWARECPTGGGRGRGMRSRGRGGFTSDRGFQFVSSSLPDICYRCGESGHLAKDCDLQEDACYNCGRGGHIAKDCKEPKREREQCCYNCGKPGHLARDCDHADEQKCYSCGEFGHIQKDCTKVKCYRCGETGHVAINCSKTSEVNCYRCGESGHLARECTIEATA
UniProt P55957: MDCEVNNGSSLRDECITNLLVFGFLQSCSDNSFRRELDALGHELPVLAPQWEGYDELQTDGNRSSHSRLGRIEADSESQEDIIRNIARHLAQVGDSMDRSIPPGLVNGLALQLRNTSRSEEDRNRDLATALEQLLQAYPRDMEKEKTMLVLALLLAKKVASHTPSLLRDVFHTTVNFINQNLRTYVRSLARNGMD
UniProt P61106, whole entry, looked up: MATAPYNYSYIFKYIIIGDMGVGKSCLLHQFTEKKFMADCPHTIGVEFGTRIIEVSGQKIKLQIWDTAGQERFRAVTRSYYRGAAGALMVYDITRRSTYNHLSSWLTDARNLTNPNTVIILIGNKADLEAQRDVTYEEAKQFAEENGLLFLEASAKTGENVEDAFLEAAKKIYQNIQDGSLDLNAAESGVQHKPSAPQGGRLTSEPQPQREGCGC
UniProt P52209: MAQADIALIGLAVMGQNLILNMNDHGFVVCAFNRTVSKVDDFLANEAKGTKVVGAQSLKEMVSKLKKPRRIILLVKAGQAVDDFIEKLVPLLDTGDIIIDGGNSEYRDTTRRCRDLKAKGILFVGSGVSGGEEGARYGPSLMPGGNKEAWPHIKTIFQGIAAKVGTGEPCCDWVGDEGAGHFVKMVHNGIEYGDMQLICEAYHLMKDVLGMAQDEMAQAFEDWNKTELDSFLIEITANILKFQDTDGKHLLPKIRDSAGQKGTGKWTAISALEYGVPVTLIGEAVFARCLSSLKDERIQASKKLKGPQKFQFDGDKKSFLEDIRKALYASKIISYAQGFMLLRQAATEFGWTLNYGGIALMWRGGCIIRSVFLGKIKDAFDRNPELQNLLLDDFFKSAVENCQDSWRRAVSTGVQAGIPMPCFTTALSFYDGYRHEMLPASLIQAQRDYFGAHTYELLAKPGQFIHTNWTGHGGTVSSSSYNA
UniProt P60174, whole entry: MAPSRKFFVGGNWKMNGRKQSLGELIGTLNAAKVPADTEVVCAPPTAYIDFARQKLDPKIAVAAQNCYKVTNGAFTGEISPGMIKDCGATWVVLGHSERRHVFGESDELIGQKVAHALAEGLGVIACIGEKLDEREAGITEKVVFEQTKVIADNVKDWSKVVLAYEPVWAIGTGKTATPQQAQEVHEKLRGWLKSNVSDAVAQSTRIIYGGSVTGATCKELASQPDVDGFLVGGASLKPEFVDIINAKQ
UniProt P54886: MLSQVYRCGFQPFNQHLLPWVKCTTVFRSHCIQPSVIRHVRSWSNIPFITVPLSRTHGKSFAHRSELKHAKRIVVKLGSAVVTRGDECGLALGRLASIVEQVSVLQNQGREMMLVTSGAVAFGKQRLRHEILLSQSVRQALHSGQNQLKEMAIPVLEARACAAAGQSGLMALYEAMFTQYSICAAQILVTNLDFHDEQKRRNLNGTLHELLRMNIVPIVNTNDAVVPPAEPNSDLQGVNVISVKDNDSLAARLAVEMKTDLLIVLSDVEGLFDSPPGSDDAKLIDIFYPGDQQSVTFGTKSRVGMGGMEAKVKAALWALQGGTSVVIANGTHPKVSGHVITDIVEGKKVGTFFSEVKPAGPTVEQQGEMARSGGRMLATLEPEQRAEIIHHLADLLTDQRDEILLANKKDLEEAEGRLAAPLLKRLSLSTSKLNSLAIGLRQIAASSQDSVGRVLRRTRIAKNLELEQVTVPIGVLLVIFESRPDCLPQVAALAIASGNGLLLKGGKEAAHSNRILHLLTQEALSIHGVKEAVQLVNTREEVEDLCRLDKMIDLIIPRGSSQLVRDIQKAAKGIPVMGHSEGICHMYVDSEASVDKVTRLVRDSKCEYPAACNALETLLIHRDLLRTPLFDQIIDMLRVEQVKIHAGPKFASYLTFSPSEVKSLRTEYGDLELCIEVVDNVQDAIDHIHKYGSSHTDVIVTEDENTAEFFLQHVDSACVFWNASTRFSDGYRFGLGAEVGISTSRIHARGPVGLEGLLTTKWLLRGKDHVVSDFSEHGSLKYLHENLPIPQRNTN
UniProt P98179: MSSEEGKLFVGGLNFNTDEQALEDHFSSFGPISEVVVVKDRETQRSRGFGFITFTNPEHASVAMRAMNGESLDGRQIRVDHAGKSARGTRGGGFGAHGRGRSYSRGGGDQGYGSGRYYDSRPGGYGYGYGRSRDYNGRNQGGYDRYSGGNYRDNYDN

Compound: Nc1nc2c(ncn2[C@@H]2O[C@H](COP(=O)(O)OP(=O)(O)OP(=O)(O)O)[C@@H](O)[C@H]2O)c(=O)[nH]1 [guanosine triphosphate]
Assay: NP40-soluble protein abundance relative to vehicle (solubility fold change) (ratio); higher = more soluble protein in presence of GTP
Method in brief: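 Eight concentrations, 0.1 to 10 mM, were tested on Jurkat crude lysate for 10 min at room temperature and then 3 min at 37 °C, in three independent experiments. The lysate was solubilised with 0.8% NP40 and benzonase, ultracentrifuged, and the supernatant TMT-labelled for LC-MS/MS. Each value is the fold change against the detergent-processed vehicle in its own replicate, from vsn-normalised intensities.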

Target	NP40-soluble protein abundance (concentration: 0.1mM)	NP40-soluble protein abundance (concentration: 0.5mM)	NP40-soluble protein abundance (concentration: 1mM)	NP40-soluble protein abundance (concentration: 2mM)	NP40-soluble protein abundance (concentration: 4mM)	NP40-soluble protein abundance (concentration: 6mM)	NP40-soluble protein abundance (concentration: 8mM)	NP40-soluble protein abundance (concentration: 10mM)
ACTR3 (UniProt P61158)	1.03 ± 0.05	1.07 ± 0.041	1.01 ± 0.036	0.998 ± 0.054	0.981 ± 0.038	0.988 ± 0.03	0.982 ± 0.015	0.944 ± 0.047
NOP14 (UniProt P78316)	0.965 ± 0.029	0.948 ± 0.06	0.984 ± 0.034	0.961 ± 0.056	0.953 ± 0.021	0.96 ± 0.03	0.998 ± 0.045	1.02 ± 0.034
UniProt P62877	0.911 ± 0.096	0.906 ± 0.13	0.848 ± 0.092	0.875 ± 0.13	0.877 ± 0.095	0.853 ± 0.12	0.811 ± 0.075	0.831 ± 0.076
UniProt P62312	0.902 ± 0.05	0.886 ± 0.052	0.987 ± 0.069	0.939 ± 0.017	0.915 ± 0.057	0.956 ± 0.03	0.911 ± 0.064	0.952 ± 0.045
UniProt P78410-2|P78410 and related entries	0.953 ± 0.073	0.929 ± 0.1	0.937 ± 0.058	0.916 ± 0.062	0.888 ± 0.019	0.884 ± 0.032	0.915 ± 0.11	0.843 ± 0.051
UniProt P62310	0.934 ± 0.057	0.937 ± 0.045	0.96 ± 0.093	0.963 ± 0.085	0.957 ± 0.096	0.931 ± 0.091	0.963 ± 0.02	1.01 ± 0.053
UniProt P51531 and related entries	1.08 ± 0.034	1.1 ± 0.043	1.11 ± 0.027	1.14 ± 0.018	1.22 ± 0.064	1.21 ± 0.038	1.253 ± 0.0096	1.2 ± 0.025
RAB2A (UniProt P61019)	0.92 ± 0.035	0.9465 ± 0.0077	0.848 ± 0.042	0.854 ± 0.034	0.818 ± 0.054	0.839 ± 0.036	0.792 ± 0.062	0.821 ± 0.065
UniProt P52564	1.02 ± 0.018	1 ± 0.029	0.935 ± 0.025	0.938 ± 0.024	0.95 ± 0.043	0.926 ± 0.066	0.908 ± 0.045	0.882 ± 0.056
MRPS6 (UniProt P82932)	1.02 ± 0.16	1.06 ± 0.19	1.29 ± 0.35	1.36 ± 0.29	1.3 ± 0.33	1.28 ± 0.27	1.21 ± 0.32	1.3 ± 0.42
UniProt P51149	0.964 ± 0.027	0.95 ± 0.029	0.895 ± 0.053	0.858 ± 0.049	0.843 ± 0.069	0.849 ± 0.048	0.82 ± 0.093	0.803 ± 0.086
UniProt P56381	0.923 ± 0.072	0.92 ± 0.058	1.06 ± 0.16	1.05 ± 0.11	1.07 ± 0.16	1.11 ± 0.14	1.13 ± 0.15	1.21 ± 0.22
UniProt P61024 and related entries	0.968 ± 0.0044	0.939 ± 0.055	1.04 ± 0.042	0.99 ± 0.065	0.923 ± 0.043	0.97 ± 0.11	1.03 ± 0.032	0.96 ± 0.07
UniProt P54687 and related entries	1.01 ± 0.051	0.994 ± 0.058	0.928 ± 0.019	0.933 ± 0.077	0.925 ± 0.08	0.896 ± 0.059	0.891 ± 0.029	0.888 ± 0.069
NDUFA8 (UniProt P51970)	0.912 ± 0.098	0.913 ± 0.04	1.05 ± 0.14	1.09 ± 0.071	1.08 ± 0.14	1.08 ± 0.089	1.03 ± 0.1	1.14 ± 0.15
UniProt P60891	1.03 ± 0.072	1.15 ± 0.18	1.18 ± 0.22	1.26 ± 0.25	1.29 ± 0.23	1.3 ± 0.28	1.28 ± 0.27	1.26 ± 0.23
UniProt P62249	0.986 ± 0.1	1 ± 0.14	1.07 ± 0.23	0.992 ± 0.23	0.907 ± 0.29	0.87 ± 0.28	0.738 ± 0.2	0.788 ± 0.26
SERPINH1 (UniProt P50454)	0.964 ± 0.048	0.966 ± 0.044	0.889 ± 0.05	0.875 ± 0.061	0.847 ± 0.059	0.85 ± 0.036	0.868 ± 0.074	0.86 ± 0.081
UniProt P55347 and related entries	0.953 ± 0.1	0.959 ± 0.11	1.01 ± 0.099	0.937 ± 0.038	0.913 ± 0.068	0.935 ± 0.096	0.958 ± 0.091	0.961 ± 0.077
RRP1 (UniProt P56182)	1.03 ± 0.044	0.968 ± 0.014	1.03 ± 0.037	1.04 ± 0.055	1.07 ± 0.042	1.02 ± 0.074	1.04 ± 0.037	1.07 ± 0.03
UniProt P62633 and related entries	1.04 ± 0.15	1.03 ± 0.14	1.03 ± 0.14	0.982 ± 0.11	0.996 ± 0.15	1.01 ± 0.15	1.06 ± 0.18	1.04 ± 0.19
UniProt P55957 and related entries	0.918 ± 0.15	0.854 ± 0.04	1.1 ± 0.13	1.09 ± 0.029	1.03 ± 0.053	1.06 ± 0.066	0.944 ± 0.13	1.09 ± 0.14
UniProt P61106	0.936 ± 0.034	0.97 ± 0.016	0.927 ± 0.043	0.913 ± 0.036	0.931 ± 0.052	0.91 ± 0.063	0.91 ± 0.062	0.884 ± 0.055
UniProt P78346 and related entries	1.13 ± 0.14	1.06 ± 0.17	1.09 ± 0.13	1.15 ± 0.18	1.16 ± 0.18	1.15 ± 0.18	1.17 ± 0.15	1.13 ± 0.16
UniProt P52209 and related entries	0.9759 ± 0.0051	0.964 ± 0.012	0.926 ± 0.024	0.883 ± 0.034	0.881 ± 0.036	0.875 ± 0.023	0.865 ± 0.044	0.833 ± 0.047
UniProt P60174 and related entries	0.843 ± 0.094	0.884 ± 0.1	0.875 ± 0.096	0.824 ± 0.12	0.817 ± 0.12	0.842 ± 0.11	0.813 ± 0.096	0.835 ± 0.13
UniProt P54886 and related entries	1.02 ± 0.026	1.07 ± 0.05	0.9494 ± 0.0094	0.976 ± 0.039	0.964 ± 0.031	0.95 ± 0.02	0.906 ± 0.027	0.903 ± 0.055
RBM3 (UniProt P98179)	0.988 ± 0.083	0.98 ± 0.062	1.03 ± 0.045	1.04 ± 0.066	1.06 ± 0.07	1.06 ± 0.06	1.1 ± 0.033	1.13 ± 0.051
UniProt P62917	1.03 ± 0.088	1.03 ± 0.063	1.11 ± 0.17	1.01 ± 0.19	0.958 ± 0.22	0.977 ± 0.23	0.772 ± 0.2	1.05 ± 0.29
UniProt P78563 and related entries	1.05 ± 0.12	1.03 ± 0.13	1.007 ± 0.0033	1.07 ± 0.053	1.11 ± 0.044	1.16 ± 0.062	1.15 ± 0.031	1.16 ± 0.1

Given field by field: entries from further up
MRPS6 (UniProt P82932)
  NP40-soluble protein abundance (concentration: 0.1mM): 1.02 ± 0.16; NP40-soluble protein abundance (concentration: 0.5mM): 1.06 ± 0.19; NP40-soluble protein abundance (concentration: 1mM): 1.29 ± 0.35; NP40-soluble protein abundance (concentration: 2mM): 1.36 ± 0.29; NP40-soluble protein abundance (concentration: 4mM): 1.3 ± 0.33; NP40-soluble protein abundance (concentration: 6mM): 1.28 ± 0.27; NP40-soluble protein abundance (concentration: 8mM): 1.21 ± 0.32; NP40-soluble protein abundance (concentration: 10mM): 1.3 ± 0.42
SERPINH1 (UniProt P50454)
  NP40-soluble protein abundance (concentration: 0.1mM): 0.964 ± 0.048; NP40-soluble protein abundance (concentration: 0.5mM): 0.966 ± 0.044; NP40-soluble protein abundance (concentration: 1mM): 0.889 ± 0.05; NP40-soluble protein abundance (concentration: 2mM): 0.875 ± 0.061; NP40-soluble protein abundance (concentration: 4mM): 0.847 ± 0.059; NP40-soluble protein abundance (concentration: 6mM): 0.85 ± 0.036; NP40-soluble protein abundance (concentration: 8mM): 0.868 ± 0.074; NP40-soluble protein abundance (concentration: 10mM): 0.86 ± 0.081
